From article PMC8027380
Results are given in words; binding and its absence hold for the method and conditions named. In cells and extracts the contact can be indirect. Some entries that bind do so weakly or less than the wild type.

By UniProt entry, the sequences of proteins in these tests, tags left out. Residues count along the entry.
UniProt Q9UJA3: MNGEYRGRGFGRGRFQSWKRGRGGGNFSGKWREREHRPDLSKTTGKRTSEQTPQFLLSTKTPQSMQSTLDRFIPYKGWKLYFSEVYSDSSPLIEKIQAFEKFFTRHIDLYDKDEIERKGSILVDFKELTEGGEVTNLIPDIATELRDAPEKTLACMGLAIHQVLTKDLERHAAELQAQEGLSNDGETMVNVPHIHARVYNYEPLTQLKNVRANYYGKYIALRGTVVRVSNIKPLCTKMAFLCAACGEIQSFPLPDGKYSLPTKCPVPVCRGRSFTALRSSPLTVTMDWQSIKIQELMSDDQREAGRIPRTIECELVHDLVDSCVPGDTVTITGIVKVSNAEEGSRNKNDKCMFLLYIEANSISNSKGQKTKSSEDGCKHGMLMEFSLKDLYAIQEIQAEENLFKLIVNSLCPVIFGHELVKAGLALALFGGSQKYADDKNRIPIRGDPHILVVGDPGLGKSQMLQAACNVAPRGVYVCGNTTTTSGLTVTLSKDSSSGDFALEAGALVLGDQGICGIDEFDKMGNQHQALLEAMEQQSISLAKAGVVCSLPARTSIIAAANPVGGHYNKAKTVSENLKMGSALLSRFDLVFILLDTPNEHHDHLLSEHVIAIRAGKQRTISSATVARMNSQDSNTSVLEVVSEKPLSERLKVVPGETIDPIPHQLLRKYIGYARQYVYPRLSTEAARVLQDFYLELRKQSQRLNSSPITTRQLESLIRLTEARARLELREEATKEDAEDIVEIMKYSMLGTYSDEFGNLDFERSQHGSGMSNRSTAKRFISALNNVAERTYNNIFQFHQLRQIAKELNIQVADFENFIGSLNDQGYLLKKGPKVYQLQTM
UniProt P29279, residues 27-349: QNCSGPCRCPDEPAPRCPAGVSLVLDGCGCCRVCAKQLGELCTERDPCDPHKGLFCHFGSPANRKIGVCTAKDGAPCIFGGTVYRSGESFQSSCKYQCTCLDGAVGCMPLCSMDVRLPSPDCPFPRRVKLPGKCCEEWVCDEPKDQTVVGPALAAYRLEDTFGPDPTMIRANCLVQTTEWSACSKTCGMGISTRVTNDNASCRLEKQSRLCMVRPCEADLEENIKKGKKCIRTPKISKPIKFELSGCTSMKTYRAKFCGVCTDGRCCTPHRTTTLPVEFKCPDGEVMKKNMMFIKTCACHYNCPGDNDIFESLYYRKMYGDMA

Target: Flag tagged MCM8 (UniProt Q9UJA3)
Test: co-IP; 1.0 mg protein of MNNG/HOS lysate (Control or MCM8-Flag lentivirus) incubated with antibody at 4 °C overnight, then 20 μL beads at 4 °C for 2 h; precipitated with Flag antibody, blotted with CTGF antibody

For “connective tissue growth factor (CTGF) (from UniProt P29279 27-349)”, the binding was “binds”.
